Results: PubChem BioAssay AID624297 (National Center for Advancing Translational Sciences (NCATS), 2012)
The campaign covered roughly 340,000 compounds. About 6,200 (1.8%) were called active. Inconclusive results, whose numbers are uncertain, are shown with a selection of clear calls. The call rests on the fitted dose curve; in most records, active means well fitted activation curve with a large enough effect; inconclusive means small, poorly fitted or top-dose-only effect; inactive means no such curve, though single readings can be large or run the other way. Potencies beside an inconclusive call are fits to weak or partial responses and may not hold up.
Potency means the concentration at half of the fitted maximal effect.

Assay: A quantitative high throughput screen for small molecules that induce DNA re-replication in SW480 colon adenocarcinoma cells. Further: nearly all actives have a fitted effect of over 55% in size. On re-replication activation: % of control where 0% means no effect.
Conditions: Hoechst DNA content imaging, 48 h; re-replication activation: at 46.1 µM (top of the series) unless noted
Method in brief: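 Treated cells incubate 48 hr (37 C, 5% CO2), are stained 40 min with Hoechst, and nuclear fluorescence is enumerated; a rise in nuclei with high DNA signal marks re-replication.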
For COc1ccc(CCNc2nc(-c3ccncc3)cs2)cc1OC, the “re-replication activation” value was inactive: -5.34%.
With Cc1nn(-c2ccc(F)cc2)c(Cl)c1/C=N/NC(=O)c1ccc(O)cc1 the “re-replication activation” value was inactive: 2.65%.
For COc1ccccc1Nc1nc(N2CCOCC2)nc(N2CCOCC2)n1, the Potency was inconclusive: 0.731 µM [activator, full curve].
With O=C1CCC(=O)N1CO the “re-replication activation” value was inactive: 0.206%.
For Cn1c(=O)c2c(nc(NCc3ccco3)n2C/C=C/c2ccccc2)n(C)c1=O, the Potency was inconclusive: 29.1 µM [activator, single point].
For O=C1CCCc2c1nc(-c1cccc(Cl)c1)n2O, the Potency was inconclusive: 0.651 µM [activator, partial curve, poor fit].
With CC(=O)c1cccc(NC(=O)C2=CC(c3ccc4c(c3)OCO4)=NS(=O)(=O)N2C)c1 the “re-replication activation” value was inactive: -3.3%.
With CCOC(=O)[C@H]1[C@H]2COc3ccc(Br)cc3[C@@H]2N2C(=O)CN(C)C(=O)[C@@]12C the Potency was inconclusive: 29.1 µM [activator, single point].
In the case of O=c1cc(COc2ccccc2[N+](=O)[O-])nc2sccn12, the Potency is reported as inconclusive: 0.517 µM [activator, full curve, poor fit].
In the case of COc1ccc2cc(C#N)c(SCC(=O)N3CCCC3)nc2c1, the re-replication activation is reported as inactive: 0.987% [at 9.22 µM].
With CCOC(=O)C1CCCN(S(=O)(=O)c2cc3c4c(c2)CCC(=O)N4CCC3)C1 (stereo not given) the “re-replication activation” value was inactive: -3.52%.
With COc1ccc(OC)c(NC(=S)Nc2ccccc2)c1 the “re-replication activation” value was inactive: 2.43%.
With COc1cc(C2CC(=O)Nc3cc(C)c(C)cc32)cc(OC)c1OC (stereo not given) the Potency was inconclusive: 16.4 µM [activator, single point].
With O=C1CCCC(=O)N1c1ccc(NCCOCCO)c([N+](=O)[O-])c1 the Potency was inconclusive: 0.0651 µM [activator, full curve, poor fit].
In the case of COc1cc(C2CC(=O)c3c(ccc4ccccc34)N2)ccc1O (stereo not given), the “re-replication activation” value is reported as inactive: -2.68%.
For O=C(CCN1CCN(c2ccccc2)CC1)N/N=C/c1ccccc1OC(F)F, the Potency was active: 3.26 µM.
For CCOc1ccc2nc(Nc3nc4ccc(NC(C)=O)cc4s3)sc2c1, the Potency was active: 18.4 µM.
With Oc1ccccc1N1CCN(c2ncnc3scc(-c4ccc(F)cc4)c23)CC1 the Potency was inconclusive: 29.1 µM [activator, single point].
For O=C(c1cc(-c2ccncc2)nc2ccc(Cl)cc12)N1CCN(C(=O)C2CCCO2)CC1 (stereo not given), the “re-replication activation” value was inactive: -7.28%.
For O=c1cc(C(F)(F)F)nc(-n2[nH]c3c(c2=O)CCCC3)[nH]1, the Potency was inconclusive: 32.6 µM [activator, partial curve, poor fit].
In the case of Cc1ccc(SCc2nc(N)nc(Nc3ccccc3C)n2)cc1C, the Potency is reported as inconclusive: 29.1 µM [activator, single point].
With COc1ccc(C(C)(C)C)cc1NC(=O)Nc1ccc2c(c1)OCO2 the Potency was inconclusive: 29.1 µM [activator, single point].
For COc1ccccc1N(CC(O)COc1ccccc1)S(=O)(=O)c1ccccc1 (stereo not given), the Potency was inconclusive: 3.26 µM [activator, partial curve, poor fit].
For COc1cc2sc3ccc(C#CC4(O)CCCCC4)cc3c(=O)c2cc1OC, the Potency was inconclusive: 29.1 µM [activator, single point].
For O=C(/C=C/c1ccccc1)NC(NC(=S)Nc1ccc(Cl)cc1Cl)C(Cl)(Cl)Cl (stereo not given), the Potency was inconclusive: 29.1 µM [activator, single point].
With COC(=O)c1ccc2c(=O)n(CC3CCCO3)c(SCC(=O)Nc3ccccc3OC)nc2c1 (stereo not given) the “re-replication activation” value was inactive: 4.49%.
In the case of Cc1nc(N2CCN(c3ccccn3)CC2)c2c(C)c(C(=O)Nc3ccccc3F)sc2n1, the “re-replication activation” value is reported as inactive: -4.76%.
With Cc1ccc(C2C3=C(NCCN=C3c3ccccc3)C(=O)N2c2ccccc2)cc1 (stereo not given) the Potency was inconclusive: 18.4 µM [activator, single point].
With C=C(C)c1cccc(C(C)(C)NC(=O)N2CCN(CC(N)=O)CC2)c1 the Potency was inconclusive: 29.1 µM [activator, partial curve, poor fit].
For O=C(Cn1nc(-c2ccccc2)c2ccccc2c1=O)NCCO, the “re-replication activation” value was inactive: -9.64%.
With OC(CNCCc1ccc(Cl)cc1Cl)COc1ccccc1 (stereo not given) the Potency was inconclusive: 29.1 µM [activator, single point].
With COc1cc2[nH]cc(C(=O)NCc3cccs3)c(=O)c2cc1OC the “re-replication activation” value was inactive: 1.92%.
For c1ccc(CCNCCCOc2cccc3ccccc23)cc1, the Potency was inconclusive: 29.1 µM [activator, single point].
In the case of CCOc1cc(C2C3=C(CCCC3=O)N(CCC(=O)O)C3=C2C(=O)CCC3)ccc1OS(=O)(=O)c1ccc(C)cc1, the Potency is reported as inconclusive: 18.4 µM [activator, partial curve, poor fit].
For CN(CC(=O)Nc1cccc(F)c1)C(=O)c1ccccc1CCc1ccccc1, the “re-replication activation” value was inactive: 0.865%.
For COc1ccc(S(=O)(=O)N2CCC(n3cnc4cc(C(F)(F)F)ccc43)CC2)cc1, the “re-replication activation” value was inactive: -1.27%.
For Cc1cc(CN2CCN(CC(=O)Nc3cc(Cl)ccc3-n3cncn3)CC2)no1, the Potency was inconclusive: 32.6 µM [activator, partial curve, poor fit].
In the case of COc1ccc(S(=O)(=O)N2CCN(CCOc3ccc(Br)cc3)CC2)cc1OC, the “re-replication activation” value is reported as inactive: 6.23%.
In the case of O=C1ON=C(c2ccccc2)/C1=C/c1ccc(OS(=O)(=O)c2ccccc2)cc1, the Potency is reported as inconclusive: 13 µM [activator, partial curve, poor fit].
With COc1ccccc1C(C)NC(=O)c1ccc(S(=O)(=O)NCc2ccco2)cc1 (stereo not given) the Potency was inconclusive: 29.1 µM [activator, single point].
With Cc1nccn1S(=O)(=O)c1cc([N+](=O)[O-])ccc1Cl the Potency was inconclusive: 6.51 µM [activator, single point].
With Cc1ccc(S(=O)(=O)Nc2cccc(C(=O)NCc3cccnc3)c2)cc1F the Potency was active: 6.51 µM.
With CC(C(=O)NCC1CCCCC1)N(C)Cc1ccc(Cl)cc1 (stereo not given) the “re-replication activation” value was inactive: -1.06%.
In the case of CC1=NOC(=O)/C1=C\c1ccc(-c2ccc(Br)cc2)o1, the Potency is reported as inconclusive: 29.1 µM [activator, single point].
For O=S1(=O)C=C(Sc2nc3ccccc3s2)c2ccccc21, the Potency was inconclusive: 0.82 µM [activator, full curve, poor fit].
For CS(=O)(=O)N1CCCC(C(=O)N2CCc3ccccc3C2)C1 (stereo not given), the Potency was active: 10.3 µM.
With Cc1ccc(C)c(N2CCN(C(=O)C(Cc3ccccc3)n3cccc3)CC2)c1 (stereo not given) the Potency was inconclusive: 25.9 µM [activator, single point].
For CCC(=O)N(Cc1cc2ccc(C)cc2[nH]c1=O)c1ccccc1OC, the “re-replication activation” value was inactive: 3.56%.
For O=C(Nc1ccc2c(c1)C(=O)N(CC1CCCO1)C2=O)c1ccccc1Br (stereo not given), the “re-replication activation” value was inactive: -13.8%.
For COc1ccc(OC)c(Nc2nc(-c3sc(NC(=O)CC(C)C)nc3C)cs2)c1, the Potency was inconclusive: 6.51 µM [activator, single point].
With Cc1c(C=C(C#N)c2ccc([N+](=O)[O-])cc2)c(=O)n(-c2ccccc2)n1C the “re-replication activation” value was inactive: -0.56%.
With COc1cc(/C=C2\SC(=S)N(Nc3ccccc3)C2=O)ccc1O the “re-replication activation” value was inactive: -5.97%.
In the case of Cc1ccnc(NC(=O)c2cccc(S(=O)(=O)N3CCCc4ccccc43)c2)c1, the Potency is reported as inconclusive: 23.1 µM [activator, partial curve, poor fit].
With CC(=O)c1cc(-c2ccccc2)n(CCC(=O)NC2CCCCCCC2)c1C the Potency was inconclusive: 0.366 µM [activator, full curve, poor fit].
With CCCCN1C(=O)C(=O)N(CC(=O)Nc2sc(C)c(C)c2C(=O)OC)C1=O the “re-replication activation” value was inactive: -12.2%.
For CN(C)c1ccc(/C=C/c2ccc3ccccc3n2)cc1, the Potency was active: 23.1 µM.
For CC1CCN(c2c(NCC3CCC(C(=O)NCCCc4ccccc4)CC3)c(=O)c2=O)CC1 (stereo not given), the Potency was inconclusive: 29.1 µM [activator, single point].
For CC(C)NC(=O)c1cc(-c2ccc(Br)cc2)on1, the “re-replication activation” value was inactive: -4.44%.
With CCOCCCNC(=O)CN1C(=O)CSc2cc(S(=O)(=O)N3CCCCCC3)ccc21 the Potency was inconclusive: 7.31 µM [activator, single point].
In the case of O=C1c2cccc3cccc(c23)C(=O)N1CC1CCN(CC(O)COc2ccc3ccccc3c2)CC1 (stereo not given), the Potency is reported as inconclusive: 29.1 µM [activator, single point].
With CCS(=O)(=O)N1CCC(C(=O)NCCN2CCOCC2)CC1 the Potency was inconclusive: 0.58 µM [activator, full curve, poor fit].
For CC[C@]12c3[nH]c4cc(-c5ccco5)ccc4c3CCN1C(=O)[C@@H](CC(=O)NCCc1ccccn1)C[C@@H]2C(=O)N1CCN(C(=O)C2CC2)CC1, the Potency was inconclusive: 0.517 µM [activator, partial curve, poor fit].
For O=C(Cc1ccc(Cl)cc1)NN1C(=O)c2ccccc2C1=O, the “re-replication activation” value was inactive: -2.59%.
For COc1ccc(-c2csc(Nc3ccc(S(N)(=O)=O)cc3)n2)cc1, the Potency was inconclusive: 20.6 µM [activator, single point].
For O=C(NCc1ccco1)C(=O)NCC1OCCN1C(=O)c1ccc(Cl)cc1 (stereo not given), the Potency was inconclusive: 29.1 µM [activator, single point].
In the case of O=C(CNC(=O)c1ccc(Cl)cc1)NCc1ccccn1, the “re-replication activation” value is reported as inactive: -17.7%.
For COc1ccc(S(=O)(=O)N(C)C[C@H]2Oc3c(NS(=O)(=O)c4cn(C)cn4)cccc3C(=O)N([C@H](C)CO)C[C@@H]2C)cc1, the re-replication activation was inactive: -2.24% [at 9.22 µM].
With CCOC(=O)C1CCN(c2c(Nc3cc(C)cc(C)c3)c(=O)c2=O)CC1 the Potency was inconclusive: 29.1 µM [activator, single point].
In the case of CCOc1ccccc1N1CC(C(=O)Nc2c(C)n(C)n(-c3ccccc3)c2=O)CC1=O (stereo not given), the “re-replication activation” value is reported as inactive: -0.243%.
For COc1ccccc1NC(=O)C(C)OC(=O)c1ccc(-n2cnnn2)cc1 (stereo not given), the Potency was inconclusive: 6.51 µM [activator, single point].
